Reference: PubChem BioAssay (EPA / NIEHS)
The shares of active, inactive and inconclusive entries below differ from those in the screen. Where the call is inconclusive, the potency comes from a doubtful curve fit. Activity calls are given as the source filed them. Rule for the calls: active = hit-call score of the fitted dose curve at least 0.9, where 1 is the maximum; inconclusive = response in the unintended direction; inactive = score below 0.9.

Chains of the proteins cited; added tags and fusions are not shown. Lines headed by an entry give the natural chain unless they say otherwise; changes in a name come on top.
UniProt P10586, whole entry, looked up: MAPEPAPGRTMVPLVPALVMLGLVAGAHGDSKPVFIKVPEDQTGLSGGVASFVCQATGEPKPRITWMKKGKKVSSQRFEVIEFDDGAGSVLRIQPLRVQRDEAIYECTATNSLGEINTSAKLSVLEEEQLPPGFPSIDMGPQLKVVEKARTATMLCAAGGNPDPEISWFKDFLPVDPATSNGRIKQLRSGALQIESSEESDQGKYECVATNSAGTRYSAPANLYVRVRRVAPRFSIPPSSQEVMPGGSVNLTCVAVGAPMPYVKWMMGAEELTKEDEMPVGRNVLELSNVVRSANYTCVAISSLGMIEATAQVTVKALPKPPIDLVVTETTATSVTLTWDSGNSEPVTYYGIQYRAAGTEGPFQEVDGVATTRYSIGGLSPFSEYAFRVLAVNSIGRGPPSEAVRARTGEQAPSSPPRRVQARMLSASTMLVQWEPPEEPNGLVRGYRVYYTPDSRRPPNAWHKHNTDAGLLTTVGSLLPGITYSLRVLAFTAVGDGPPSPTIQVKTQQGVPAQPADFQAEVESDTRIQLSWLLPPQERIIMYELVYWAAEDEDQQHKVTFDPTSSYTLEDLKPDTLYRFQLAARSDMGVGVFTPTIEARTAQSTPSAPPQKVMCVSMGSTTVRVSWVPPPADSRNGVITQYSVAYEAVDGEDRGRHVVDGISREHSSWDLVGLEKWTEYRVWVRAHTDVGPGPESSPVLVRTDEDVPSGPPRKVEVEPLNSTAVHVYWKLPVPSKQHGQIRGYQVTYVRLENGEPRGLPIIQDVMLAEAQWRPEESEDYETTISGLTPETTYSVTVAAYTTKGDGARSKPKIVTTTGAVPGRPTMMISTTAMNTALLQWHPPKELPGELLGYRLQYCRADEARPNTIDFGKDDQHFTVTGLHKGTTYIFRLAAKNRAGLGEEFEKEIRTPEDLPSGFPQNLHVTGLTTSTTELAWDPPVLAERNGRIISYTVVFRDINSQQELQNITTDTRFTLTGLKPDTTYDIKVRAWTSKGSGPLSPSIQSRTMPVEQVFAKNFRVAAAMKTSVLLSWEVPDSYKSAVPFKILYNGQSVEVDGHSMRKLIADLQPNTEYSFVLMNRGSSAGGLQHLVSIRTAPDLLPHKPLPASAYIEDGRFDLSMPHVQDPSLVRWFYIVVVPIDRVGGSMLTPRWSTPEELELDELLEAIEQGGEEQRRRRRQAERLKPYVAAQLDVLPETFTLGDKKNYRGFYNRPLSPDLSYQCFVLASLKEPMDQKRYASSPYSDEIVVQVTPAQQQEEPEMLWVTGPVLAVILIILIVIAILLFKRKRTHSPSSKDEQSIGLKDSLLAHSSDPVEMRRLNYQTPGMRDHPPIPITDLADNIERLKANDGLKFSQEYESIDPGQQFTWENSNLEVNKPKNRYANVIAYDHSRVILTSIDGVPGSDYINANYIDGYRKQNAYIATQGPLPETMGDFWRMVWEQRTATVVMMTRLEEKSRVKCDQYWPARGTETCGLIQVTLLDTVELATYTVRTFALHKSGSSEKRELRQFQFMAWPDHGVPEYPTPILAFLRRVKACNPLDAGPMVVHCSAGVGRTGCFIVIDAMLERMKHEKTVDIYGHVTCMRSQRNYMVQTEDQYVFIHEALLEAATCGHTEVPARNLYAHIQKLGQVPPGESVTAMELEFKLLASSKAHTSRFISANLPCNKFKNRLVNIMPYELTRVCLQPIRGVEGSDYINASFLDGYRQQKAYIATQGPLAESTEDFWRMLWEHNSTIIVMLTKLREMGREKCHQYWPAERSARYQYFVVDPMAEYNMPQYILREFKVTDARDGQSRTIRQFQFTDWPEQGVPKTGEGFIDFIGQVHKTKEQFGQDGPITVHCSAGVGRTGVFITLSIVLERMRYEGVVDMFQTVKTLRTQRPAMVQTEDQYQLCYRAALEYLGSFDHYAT
UniProt Q13464: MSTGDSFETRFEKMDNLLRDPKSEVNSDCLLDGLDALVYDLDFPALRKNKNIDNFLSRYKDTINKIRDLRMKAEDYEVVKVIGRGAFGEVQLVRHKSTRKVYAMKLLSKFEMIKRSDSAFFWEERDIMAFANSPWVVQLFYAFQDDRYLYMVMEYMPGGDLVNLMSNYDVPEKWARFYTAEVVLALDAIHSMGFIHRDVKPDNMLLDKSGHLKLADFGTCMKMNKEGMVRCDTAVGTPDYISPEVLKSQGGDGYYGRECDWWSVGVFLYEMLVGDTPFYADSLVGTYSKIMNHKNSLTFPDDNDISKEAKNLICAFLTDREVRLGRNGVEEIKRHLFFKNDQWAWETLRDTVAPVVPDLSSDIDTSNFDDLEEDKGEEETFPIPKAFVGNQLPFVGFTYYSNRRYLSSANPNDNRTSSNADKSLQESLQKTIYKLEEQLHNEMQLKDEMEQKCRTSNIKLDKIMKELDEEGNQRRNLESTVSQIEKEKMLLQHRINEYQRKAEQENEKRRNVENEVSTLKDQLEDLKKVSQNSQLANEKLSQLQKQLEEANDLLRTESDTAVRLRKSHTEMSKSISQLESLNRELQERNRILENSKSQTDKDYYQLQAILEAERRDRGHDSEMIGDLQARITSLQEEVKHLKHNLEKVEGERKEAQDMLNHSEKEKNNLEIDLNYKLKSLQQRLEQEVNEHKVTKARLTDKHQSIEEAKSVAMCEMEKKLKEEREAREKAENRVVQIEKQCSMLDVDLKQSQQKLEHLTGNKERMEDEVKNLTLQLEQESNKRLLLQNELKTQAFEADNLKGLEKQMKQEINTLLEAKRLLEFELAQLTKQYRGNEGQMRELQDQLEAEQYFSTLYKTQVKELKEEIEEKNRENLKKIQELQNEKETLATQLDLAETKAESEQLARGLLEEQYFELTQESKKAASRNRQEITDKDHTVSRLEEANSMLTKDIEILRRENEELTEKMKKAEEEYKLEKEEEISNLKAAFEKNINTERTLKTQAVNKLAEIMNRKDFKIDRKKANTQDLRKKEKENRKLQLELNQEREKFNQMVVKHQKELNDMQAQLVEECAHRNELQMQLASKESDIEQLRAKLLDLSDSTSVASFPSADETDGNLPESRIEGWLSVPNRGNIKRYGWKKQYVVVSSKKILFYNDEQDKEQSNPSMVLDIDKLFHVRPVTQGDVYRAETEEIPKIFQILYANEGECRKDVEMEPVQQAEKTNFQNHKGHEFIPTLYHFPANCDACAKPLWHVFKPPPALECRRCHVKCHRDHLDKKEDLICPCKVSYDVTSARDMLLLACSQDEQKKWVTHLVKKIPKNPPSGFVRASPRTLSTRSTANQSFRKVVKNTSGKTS
UniProt Q8IXJ6: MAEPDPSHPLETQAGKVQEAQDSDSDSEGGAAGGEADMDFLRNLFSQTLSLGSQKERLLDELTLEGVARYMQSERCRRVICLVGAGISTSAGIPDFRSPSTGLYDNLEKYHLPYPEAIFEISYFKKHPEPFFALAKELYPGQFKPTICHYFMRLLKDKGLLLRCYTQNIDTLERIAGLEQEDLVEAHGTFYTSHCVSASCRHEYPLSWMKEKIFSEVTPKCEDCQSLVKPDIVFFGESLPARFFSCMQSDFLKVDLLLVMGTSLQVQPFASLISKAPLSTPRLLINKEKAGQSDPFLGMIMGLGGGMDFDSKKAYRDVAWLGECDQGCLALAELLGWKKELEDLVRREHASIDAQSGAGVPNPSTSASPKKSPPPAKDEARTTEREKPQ
UniProt Q9NTG7: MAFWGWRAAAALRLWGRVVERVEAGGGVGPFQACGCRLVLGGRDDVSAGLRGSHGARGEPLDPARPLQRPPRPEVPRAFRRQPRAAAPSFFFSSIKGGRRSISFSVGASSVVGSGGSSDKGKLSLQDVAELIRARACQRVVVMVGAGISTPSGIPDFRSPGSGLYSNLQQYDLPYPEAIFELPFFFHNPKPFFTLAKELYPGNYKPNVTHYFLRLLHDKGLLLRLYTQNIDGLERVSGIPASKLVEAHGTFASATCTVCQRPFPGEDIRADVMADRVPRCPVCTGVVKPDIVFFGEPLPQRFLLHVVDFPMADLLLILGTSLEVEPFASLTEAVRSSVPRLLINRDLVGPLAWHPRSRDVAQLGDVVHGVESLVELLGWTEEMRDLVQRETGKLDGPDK
UniProt P04629: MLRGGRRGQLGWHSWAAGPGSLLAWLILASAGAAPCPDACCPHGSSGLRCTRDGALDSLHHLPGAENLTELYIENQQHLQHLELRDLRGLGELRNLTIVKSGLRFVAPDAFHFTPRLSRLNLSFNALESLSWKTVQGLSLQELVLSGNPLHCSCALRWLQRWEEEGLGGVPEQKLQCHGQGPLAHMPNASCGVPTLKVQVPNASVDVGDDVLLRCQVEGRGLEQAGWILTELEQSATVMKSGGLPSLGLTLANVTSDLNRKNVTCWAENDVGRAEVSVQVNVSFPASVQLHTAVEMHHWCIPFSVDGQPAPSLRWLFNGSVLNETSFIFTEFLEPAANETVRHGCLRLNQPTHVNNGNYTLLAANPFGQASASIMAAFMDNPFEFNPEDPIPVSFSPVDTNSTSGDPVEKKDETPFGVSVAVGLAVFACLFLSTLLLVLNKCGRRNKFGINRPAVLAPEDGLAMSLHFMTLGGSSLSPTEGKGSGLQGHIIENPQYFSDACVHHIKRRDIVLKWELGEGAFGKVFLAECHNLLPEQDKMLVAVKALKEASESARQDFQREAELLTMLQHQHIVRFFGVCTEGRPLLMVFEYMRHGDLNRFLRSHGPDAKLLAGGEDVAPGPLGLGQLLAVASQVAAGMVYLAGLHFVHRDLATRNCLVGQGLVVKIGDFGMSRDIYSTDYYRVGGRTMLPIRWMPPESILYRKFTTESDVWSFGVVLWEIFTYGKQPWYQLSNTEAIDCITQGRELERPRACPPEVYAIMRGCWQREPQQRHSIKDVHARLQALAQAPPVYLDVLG
UniProt Q02763: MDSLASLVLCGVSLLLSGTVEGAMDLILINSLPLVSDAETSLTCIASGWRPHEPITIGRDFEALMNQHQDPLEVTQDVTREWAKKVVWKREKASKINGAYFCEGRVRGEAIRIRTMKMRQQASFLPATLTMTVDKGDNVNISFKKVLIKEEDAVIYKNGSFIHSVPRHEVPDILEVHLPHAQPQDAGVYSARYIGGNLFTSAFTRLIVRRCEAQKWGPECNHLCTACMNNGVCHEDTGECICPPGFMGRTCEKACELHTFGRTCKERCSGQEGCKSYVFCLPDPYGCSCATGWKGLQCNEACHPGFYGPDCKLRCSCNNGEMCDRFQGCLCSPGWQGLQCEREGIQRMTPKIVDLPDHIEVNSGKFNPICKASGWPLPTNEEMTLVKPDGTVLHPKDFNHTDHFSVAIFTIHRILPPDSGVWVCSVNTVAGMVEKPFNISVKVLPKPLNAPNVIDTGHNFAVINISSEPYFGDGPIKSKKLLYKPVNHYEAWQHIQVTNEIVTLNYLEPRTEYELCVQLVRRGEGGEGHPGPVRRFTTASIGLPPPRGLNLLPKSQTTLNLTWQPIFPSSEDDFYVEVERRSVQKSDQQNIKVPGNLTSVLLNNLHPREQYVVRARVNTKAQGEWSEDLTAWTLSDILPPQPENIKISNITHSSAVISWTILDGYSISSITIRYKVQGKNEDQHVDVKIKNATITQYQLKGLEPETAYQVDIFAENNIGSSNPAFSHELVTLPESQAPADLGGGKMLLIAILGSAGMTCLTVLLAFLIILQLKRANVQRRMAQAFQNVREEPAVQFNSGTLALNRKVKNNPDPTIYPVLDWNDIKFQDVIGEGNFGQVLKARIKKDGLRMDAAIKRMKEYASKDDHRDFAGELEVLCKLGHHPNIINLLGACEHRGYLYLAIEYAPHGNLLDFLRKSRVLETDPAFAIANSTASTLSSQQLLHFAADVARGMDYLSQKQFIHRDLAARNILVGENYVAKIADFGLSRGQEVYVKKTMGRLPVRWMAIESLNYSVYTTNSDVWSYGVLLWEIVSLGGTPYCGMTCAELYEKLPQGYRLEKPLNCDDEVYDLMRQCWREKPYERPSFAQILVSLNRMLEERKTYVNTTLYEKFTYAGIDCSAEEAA

What follows are molecules tested against human Protein Tyrosine Phosphatase Receptor Type F (PTPRF), PTPRF (gene 5792) (UniProt P10586) (assay: NVS_ENZ_hPTPRF: NovaScreen (NVS) Enzymatic Assay for human Protein Tyrosine Phosphatase Receptor Type F (PTPRF) (AID 2283213)).
In short: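 Cell-free fluorescence enzyme assay with recombinant protein and substrate; product separated by electrophoretic mobility shift. Read 1 h after dosing, single 25 uM duplicate screen, then concentration-response up to 50 uM; loss of signal vs DMSO.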

| Compound | outcome | AC50 |
| --- | --- | --- |
| CN(C)C(=S)SSC(=S)N(C)C | inactive | – |
| C=C(C)CN(CC)c1c([N+](=O)[O-])cc(C(F)(F)F)cc1[N+](=O)[O-] | – | inconclusive: 25 µM |
| COc1ccc(-c2ccccc2)cc1NNC(=O)OC(C)C | – | inconclusive: 25 µM |
| COP(=O)(OC)OC(Br)C(Cl)(Cl)Br (configuration not stated) | – | inconclusive: 25 µM |
| CCC(C)(CC)c1cc(NC(=O)c2c(OC)cccc2OC)on1 | – | inconclusive: 25 µM |
| Cc1ccc(-c2c(Cl)nc(C#N)n2S(=O)(=O)N(C)C)cc1 | inactive | – |
| CS(=O)(=O)c1cc(C(F)(F)F)ccc1C(=O)c1cnoc1C1CC1 | – | inconclusive: 25 µM |

Laid out differently: entries from further up.
Compound	outcome	AC50
CN(C)C(=S)SSC(=S)N(C)C	inactive	–
C=C(C)CN(CC)c1c([N+](=O)[O-])cc(C(F)(F)F)cc1[N+](=O)[O-]	–	inconclusive: 25 µM
COc1ccc(-c2ccccc2)cc1NNC(=O)OC(C)C	–	inconclusive: 25 µM

What follows are molecules tested against human Rho Associated Coiled-coil Containing Protein Kinase 1 (ROCK1), ROCK1 (gene 6093) (UniProt Q13464) (assay: NVS_ENZ_hROCK1: NovaScreen (NVS) Enzymatic Assay for human Rho Associated Coiled-coil Containing Protein Kinase 1 (ROCK1) (AID 2283214)).
In short: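 Cell-free recombinant human ROCK1 activity assay; fluorescent substrate and product separated by electrophoretic mobility shift, read 1 h after dosing. Screened in duplicate at 25 uM; loss of signal versus DMSO baseline scored as inhibition.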

| Compound | AC50 | outcome |
| --- | --- | --- |
| Cc1cc(C)nc(Nc2ccccc2)n1 | inconclusive: 25 µM | – |
| NS(=O)(=O)C(F)(F)C(F)(F)C(F)(F)C(F)(F)C(F)(F)C(F)(F)C(F)(F)C(F)(F)F | inconclusive: 25 µM | – |
| O=C(O)C1(c2ccc3c(c2)OC[C@H](Cc2ccc(-c4ccccc4)cc2)[C@H]3O)CCCC1 | – | inactive |
| CS(=O)(=O)c1ccc(C(=O)C2C(=O)CCCC2=O)c([N+](=O)[O-])c1 | inconclusive: 25 µM | – |
| CCC12COCN1COC2 | – | inactive |
| Cc1ccc([N+](=O)[O-])cc1C | – | inactive |
| CC1(C(=O)Nc2ccc(O)c(Cl)c2Cl)CCCCC1 | – | inactive |
| CNC(=O)ON=C(SC)C(=O)N(C)C | – | inactive |
| c1ccc2c(c1)-c1cccc3cccc-2c13 | inconclusive: 25 µM | – |
| CNC(=O)Oc1cccc2c1OC(C)(C)O2 | inconclusive: 0.00229 µM | – |

Each molecule was assayed against human Raf-1 Proto-Oncogene, serine/threonine Kinase (RAF1), RAF1 (gene 5894) (UniProt P04049) (assay: NVS_ENZ_hRAF1: NovaScreen (NVS) Enzymatic Assay for human Raf-1 Proto-Oncogene, serine/threonine Kinase (RAF1) (AID 2283216)).
In short: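 Cell-free recombinant kinase with specific fluorescent substrate, product separated by electrophoretic mobility shift; read 1 h after dosing. Primary screen at 25 uM in duplicate; hits then run in concentration-response up to 50 uM, fitted as loss of signal versus DMSO.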

| Compound | AC50 | outcome |
| --- | --- | --- |
| CCc1ccc(C(=O)NN(C(=O)c2cc(C)cc(C)c2)C(C)(C)C)cc1 | inconclusive: 25 µM | – |
| CCN(CC)C(=O)C(C)Oc1cccc2ccccc12 (configuration not stated) | inconclusive: 25 µM | – |
| CCCN(CCC)c1c([N+](=O)[O-])cc(C(F)(F)F)cc1[N+](=O)[O-] | inconclusive: 25 µM | – |
| Cc1c(COC(=O)[C@@H]2[C@H](/C=C(\Cl)C(F)(F)F)C2(C)C)cccc1-c1ccccc1 | inconclusive: 25 µM | – |
| CNC(=O)ON=CC(C)(C)SC | – | inactive |

The molecules below were run against human Sirtuin 2 (SIRT2), SIRT2 (gene 22933) (UniProt Q8IXJ6) (assay: NVS_ENZ_hSIRT2: NovaScreen (NVS) Enzymatic Assay for human Sirtuin 2 (SIRT2) (AID 2283217)).
In short: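 Cell-free recombinant human SIRT2, fluorescent substrate with product separated by electrophoretic mobility shift, 1 hr. Screened in duplicate at 25 uM; hits rerun singly in concentration-response up to 50 uM, relative to DMSO.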

| Compound | AC50 |
| --- | --- |
| Oc1ccc(C(c2ccc(O)cc2)(C(F)(F)F)C(F)(F)F)cc1 | active: 25 µM |
| CCCN(CCC)N=O | inconclusive: 25 µM |
| Cc1ccc(N=C=O)cc1N=C=O | active: 25 µM |
| Cc1ccccc1N | inconclusive: 6.1 µM |
| CC[C@H](C)[C@H]1O[C@]2(C=C[C@@H]1C)C[C@@H]1C[C@@H](C/C=C(\C)[C@@H](O[C@H]3C[C@H](OC)[C@@H](O[C@H]4C[C@H](OC)[C@@H](NC)[C@H](C)O4)[C@H](C)O3)[C@@H](C)/C=C/C=C3\CO[C@@H]4[C@H](O)C(C)=C[C@@H](C(=O)O1)[C@]34O)O2 | active: 25 µM |
| CCOc1cccc(C2(N3CCN(c4ccccc4)CC3)CCC(C)CC2)c1 (configuration not stated) | inconclusive: 25 µM |

These molecules were tested against human Sirtuin 3 (SIRT3), SIRT3 (gene 23410) (UniProt Q9NTG7) (assay: NVS_ENZ_hSIRT3: NovaScreen (NVS) Enzymatic Assay for human Sirtuin 3 (SIRT3) (AID 2283222)).
In short: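 Cell-free enzyme assay with recombinant protein and fluorescent substrate, product separated by electrophoretic mobility shift; read 1 hour after dosing. Screened in duplicate at 25 uM, then singleton concentration-response up to 50 uM; loss of signal versus DMSO.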

| Compound | AC50 | outcome |
| --- | --- | --- |
| CCC(C)(C)C(=O)OC1=C(c2ccc(Cl)cc2Cl)C(=O)OC12CCCCC2 | active: 25 µM | – |
| Cc1ccccc1N | inconclusive: 1.63 µM | – |
| CC[C@H](C)[C@H]1O[C@]2(C=C[C@@H]1C)C[C@@H]1C[C@@H](C/C=C(\C)[C@@H](O[C@H]3C[C@H](OC)[C@@H](O[C@H]4C[C@H](OC)[C@@H](NC)[C@H](C)O4)[C@H](C)O3)[C@@H](C)/C=C/C=C3\CO[C@@H]4[C@H](O)C(C)=C[C@@H](C(=O)O1)[C@]34O)O2 | active: 1.25 µM | – |
| CCCN(CCOc1c(Cl)cc(Cl)cc1Cl)C(=O)n1ccnc1 | – | inactive |

Each molecule was assayed against human SRC Proto-Oncogene, Non-receptor Tyrosine Kinase (SRC), SRC (gene 6714) (UniProt P12931) (assay: NVS_ENZ_hSRC: NovaScreen (NVS) Enzymatic Assay for human SRC Proto-Oncogene, Non-receptor Tyrosine Kinase (SRC) (AID 2283223)).
In short: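 Cell-free kinase activity assay with fluorescent substrate, product separated by electrophoretic mobility shift, read 1 h after dosing. Duplicate single point at 25 uM, then concentration-response up to 50 uM; loss of signal versus DMSO.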

| Compound | AC50 |
| --- | --- |
| CC(C)OC(=O)Nc1cccc(Cl)c1 | inconclusive: 0.531 µM |
| CC[C@H](C)[C@H]1O[C@]2(C=C[C@@H]1C)C[C@@H]1C[C@@H](C/C=C(\C)[C@@H](O[C@H]3C[C@H](OC)[C@@H](O[C@H]4C[C@H](OC)[C@@H](NC)[C@H](C)O4)[C@H](C)O3)[C@@H](C)/C=C/C=C3\CO[C@@H]4[C@H](O)C(C)=C[C@@H](C(=O)O1)[C@]34O)O2 | active: 34 µM |
| CCCOCC(=Nc1ccc(Cl)cc1C(F)(F)F)n1ccnc1 | inconclusive: 25 µM |

What follows are molecules tested against human Tropomyosin Receptor Kinase A (TRKA), NTRK1 (gene 4914) (UniProt P04629) (assay: NVS_ENZ_hTrkA: NovaScreen (NVS) Enzymatic Assay for human Tropomyosin Receptor Kinase A (TRKA) (AID 2283224)).
In short: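 Recombinant human TrkA activity read after 1 h by fluorescence with electrophoretic mobility shift separating substrate and product. Primary screen in duplicate at 25 uM; actives were rerun in concentration-response up to 50 uM. Loss of signal versus DMSO.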

| Compound | outcome | AC50 |
| --- | --- | --- |
| CC(Oc1ccc(Cl)cc1Cl)C(=O)O (configuration not stated) | inactive | – |
| CCNc1nc(Cl)nc(NCC)n1 | – | inconclusive: 25 µM |
| CO/C=C(/C(=O)OC)c1ccccc1Oc1cc(Oc2ccccc2C#N)ncn1 | inactive | – |

These molecules were tested against human Tyrosine Protein Kinase Receptor Tie-2 (Tie2), TEK (gene 7010) (UniProt Q02763) (assay: NVS_ENZ_hTie2: NovaScreen (NVS) Enzymatic Assay for human Tyrosine Protein Kinase Receptor Tie-2 (Tie2) (AID 2283225)).
In short: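 Recombinant human Tie2 kinase activity was read cell-free by fluorescence with electrophoretic mobility shift, 1 hour after dosing. The screen used 25 uM in duplicate, then concentration-response up to 50 uM. Signal loss was scored against DMSO.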

| Compound | AC50 | outcome |
| --- | --- | --- |
| O=C(O)CC(O)(CC(=O)O)C(=O)O | inconclusive: 0.34 µM | – |
| CCc1cccc(CC)c1N(COC)C(=O)CCl | inconclusive: 25 µM | – |
| CC[C@H](C)[C@H]1O[C@]2(C=C[C@@H]1C)C[C@@H]1C[C@@H](C/C=C(\C)[C@@H](O[C@H]3C[C@H](OC)[C@@H](O[C@H]4C[C@H](OC)[C@@H](NC)[C@H](C)O4)[C@H](C)O3)[C@@H](C)/C=C/C=C3\CO[C@@H]4[C@H](O)C(C)=C[C@@H](C(=O)O1)[C@]34O)O2 | – | inactive |
| Cc1ccc(-c2c(Cl)nc(C#N)n2S(=O)(=O)N(C)C)cc1 | – | inactive |
